Tests used:
TF1 cells = assay: Cytotoxicity, PrestoBlue assay, TF1 cells; assay type: cell-based; conditions: Homo sapiens, TF-1, 72 h, read-out: IC50 toward TF1 cells
HEL cells = assay: Cytotoxicity, PrestoBlue assay, HEL cells; assay type: cell-based; conditions: Homo sapiens, 72 h, read-out: IC50 toward HEL cells

## C[C@@H]1CCN(C(=O)CC#N)C[C@@H]1N(C)c1ncnc2[nH]ccc12 [tofacitinib]
TF1 cells
  IC50: 25.1 ± 0.68 µM
HEL cells
  IC50: 23.3 ± 1.55 µM
